From paper PMC10732327
These are yes or no findings as the source states them, for the method shown. In cells and extracts the contact can be indirect. Some binding calls cover weakened binding; strength is not graded here.

Protein sequences, listed by entry. Tags and fused reporters are not part of them.
UniProt Q9UPY5: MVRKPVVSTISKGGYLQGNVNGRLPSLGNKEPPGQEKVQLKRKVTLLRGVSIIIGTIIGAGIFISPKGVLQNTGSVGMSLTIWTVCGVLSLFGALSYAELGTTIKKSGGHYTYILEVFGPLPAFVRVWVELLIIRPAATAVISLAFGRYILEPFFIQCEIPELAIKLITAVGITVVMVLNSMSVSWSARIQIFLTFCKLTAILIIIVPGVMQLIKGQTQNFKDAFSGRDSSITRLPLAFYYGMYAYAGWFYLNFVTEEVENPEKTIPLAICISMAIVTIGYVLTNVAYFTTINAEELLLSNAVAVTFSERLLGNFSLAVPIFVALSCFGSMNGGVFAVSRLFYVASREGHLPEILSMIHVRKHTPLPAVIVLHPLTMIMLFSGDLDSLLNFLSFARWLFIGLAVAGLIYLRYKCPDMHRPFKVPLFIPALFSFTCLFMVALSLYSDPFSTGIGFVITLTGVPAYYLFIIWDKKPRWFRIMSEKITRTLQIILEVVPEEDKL
UniProt Q13535: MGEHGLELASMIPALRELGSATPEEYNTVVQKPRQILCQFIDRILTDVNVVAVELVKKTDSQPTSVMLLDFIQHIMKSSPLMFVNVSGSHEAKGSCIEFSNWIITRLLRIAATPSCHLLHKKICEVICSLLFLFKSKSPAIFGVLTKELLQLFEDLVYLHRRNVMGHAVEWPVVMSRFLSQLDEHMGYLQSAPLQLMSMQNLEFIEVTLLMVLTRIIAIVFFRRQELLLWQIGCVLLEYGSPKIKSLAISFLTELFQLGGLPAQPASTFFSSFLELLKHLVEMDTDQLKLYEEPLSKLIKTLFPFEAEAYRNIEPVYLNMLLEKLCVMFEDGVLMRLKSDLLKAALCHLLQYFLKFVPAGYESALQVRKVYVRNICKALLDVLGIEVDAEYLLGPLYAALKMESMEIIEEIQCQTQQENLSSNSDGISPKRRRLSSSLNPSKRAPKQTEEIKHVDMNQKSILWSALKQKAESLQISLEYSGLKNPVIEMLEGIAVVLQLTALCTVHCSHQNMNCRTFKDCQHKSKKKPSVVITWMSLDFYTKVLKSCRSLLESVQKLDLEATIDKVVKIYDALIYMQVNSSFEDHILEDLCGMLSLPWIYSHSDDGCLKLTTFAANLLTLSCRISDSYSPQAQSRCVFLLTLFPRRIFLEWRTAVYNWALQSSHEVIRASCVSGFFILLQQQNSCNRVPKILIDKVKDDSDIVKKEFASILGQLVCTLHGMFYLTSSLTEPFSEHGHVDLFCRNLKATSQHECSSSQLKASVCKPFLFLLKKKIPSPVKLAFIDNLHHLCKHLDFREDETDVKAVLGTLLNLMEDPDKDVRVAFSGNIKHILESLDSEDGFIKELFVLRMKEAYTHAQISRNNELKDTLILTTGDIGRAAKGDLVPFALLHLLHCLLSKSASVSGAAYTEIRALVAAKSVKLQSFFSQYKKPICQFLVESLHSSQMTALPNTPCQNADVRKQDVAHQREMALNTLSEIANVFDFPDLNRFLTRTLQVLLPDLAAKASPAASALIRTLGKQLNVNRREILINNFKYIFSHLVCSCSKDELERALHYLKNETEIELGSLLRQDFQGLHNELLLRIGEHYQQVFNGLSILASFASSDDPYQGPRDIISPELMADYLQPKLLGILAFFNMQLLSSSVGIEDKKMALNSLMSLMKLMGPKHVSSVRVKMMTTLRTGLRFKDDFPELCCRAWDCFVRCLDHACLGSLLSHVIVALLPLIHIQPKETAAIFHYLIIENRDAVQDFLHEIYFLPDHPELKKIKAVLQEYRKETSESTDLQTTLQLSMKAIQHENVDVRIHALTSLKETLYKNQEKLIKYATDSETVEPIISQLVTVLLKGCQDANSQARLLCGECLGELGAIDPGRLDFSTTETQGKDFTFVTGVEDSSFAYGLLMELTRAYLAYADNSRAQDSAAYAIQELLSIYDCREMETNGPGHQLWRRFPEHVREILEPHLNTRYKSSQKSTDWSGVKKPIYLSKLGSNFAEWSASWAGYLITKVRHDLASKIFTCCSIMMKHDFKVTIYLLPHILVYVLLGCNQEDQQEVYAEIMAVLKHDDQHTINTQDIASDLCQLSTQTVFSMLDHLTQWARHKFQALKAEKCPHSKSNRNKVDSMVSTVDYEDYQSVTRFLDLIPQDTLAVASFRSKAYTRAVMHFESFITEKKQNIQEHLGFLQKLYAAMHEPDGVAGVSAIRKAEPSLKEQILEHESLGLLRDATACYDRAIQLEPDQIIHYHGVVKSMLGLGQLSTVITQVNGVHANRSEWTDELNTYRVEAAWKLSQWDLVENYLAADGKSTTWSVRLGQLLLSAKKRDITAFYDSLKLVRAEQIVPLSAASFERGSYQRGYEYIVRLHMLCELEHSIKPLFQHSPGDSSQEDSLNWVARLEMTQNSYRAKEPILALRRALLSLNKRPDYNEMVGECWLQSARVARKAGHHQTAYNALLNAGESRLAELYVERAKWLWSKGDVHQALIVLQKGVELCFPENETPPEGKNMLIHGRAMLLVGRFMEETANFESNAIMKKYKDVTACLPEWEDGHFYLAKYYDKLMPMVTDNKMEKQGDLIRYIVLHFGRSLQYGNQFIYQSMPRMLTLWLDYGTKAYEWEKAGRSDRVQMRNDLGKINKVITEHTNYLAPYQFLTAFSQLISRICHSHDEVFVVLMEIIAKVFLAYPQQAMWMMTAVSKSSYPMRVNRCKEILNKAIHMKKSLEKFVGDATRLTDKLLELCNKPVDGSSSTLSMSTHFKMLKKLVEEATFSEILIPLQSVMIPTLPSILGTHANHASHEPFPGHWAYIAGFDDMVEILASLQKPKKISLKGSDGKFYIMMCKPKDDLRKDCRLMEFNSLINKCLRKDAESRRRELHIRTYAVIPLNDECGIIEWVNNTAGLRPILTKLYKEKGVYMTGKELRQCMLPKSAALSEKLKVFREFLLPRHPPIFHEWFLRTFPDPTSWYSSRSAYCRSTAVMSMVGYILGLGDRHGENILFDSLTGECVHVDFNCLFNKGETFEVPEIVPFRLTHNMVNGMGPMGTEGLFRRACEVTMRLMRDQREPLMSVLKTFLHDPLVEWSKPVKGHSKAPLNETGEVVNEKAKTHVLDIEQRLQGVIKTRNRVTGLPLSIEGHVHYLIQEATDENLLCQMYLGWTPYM

Legend:
[1] = target: ubiquitin-specific peptidase 20 (USP20), endogenous (human (endogenous in Huh-7)) (UniProt Q9Y2K6); experiment: co-IP; endogenous proteins in Huh-7 cells, harvested with RIPA lysis buffer at 4°C; Co-IP with antibody as indicated
[2] = target: Solute carrier family 7 member 11 (SLC7A11), endogenous (human (endogenous in Huh-7)) (UniProt Q9UPY5); experiment: as above

binding [1]	binding [2]	Substance
binds		ATR, endogenous (from UniProt Q13535 1-2644) (enzyme)
	binds	ubiquitin-specific peptidase 20 (USP20), endogenous (from UniProt Q9Y2K6 1-914) (enzyme)
